The values that follow come from patent US20210317221A1.

Amino acid sequences for entries named in this document (tags omitted). A change or cut given only in a name is not applied to a line headed by its entry.
UniProt P20333: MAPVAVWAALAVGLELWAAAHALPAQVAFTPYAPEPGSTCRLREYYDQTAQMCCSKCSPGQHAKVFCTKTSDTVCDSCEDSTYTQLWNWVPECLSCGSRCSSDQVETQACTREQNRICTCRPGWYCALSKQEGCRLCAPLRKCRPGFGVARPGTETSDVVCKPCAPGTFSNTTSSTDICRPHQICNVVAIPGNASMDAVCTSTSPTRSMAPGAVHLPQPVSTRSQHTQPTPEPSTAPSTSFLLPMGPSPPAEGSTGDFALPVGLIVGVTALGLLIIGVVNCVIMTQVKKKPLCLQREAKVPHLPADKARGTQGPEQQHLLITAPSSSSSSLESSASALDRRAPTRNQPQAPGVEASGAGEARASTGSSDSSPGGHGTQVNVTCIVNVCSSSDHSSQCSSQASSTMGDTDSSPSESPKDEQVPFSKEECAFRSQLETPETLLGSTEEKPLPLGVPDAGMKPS

In the test the target is recombinant human TNFR2 (human) (UniProt P20333). Description: ELISA, linear peptide mapping experiment with full-length TNFR2. (In general: ELISA stands for enzyme-linked immunosorbent assay.)

No constants are given. Whether binding was seen depends on the method and setting. Some binding calls cover weakened binding; strength is not graded here. Sequences can lack the tags named with a protein.

B1: antagonistic TNFR2 antibody TNFRAB1 (antibody, V domains shown)
VH: EVQLQESGGGLVKPGGSLKLSCAASGFTFSSYVMSWVRQTPEKRLEWVATISSGGSYTYYPDSVKGRFTISRDNAKNTLYLQMSSLRSEDTAMYYCARQRVDGYSSYWYFDVWGAGTAVTVSS
VL: DIVLTQSPAIMSASPGEKVTITCSASSSVYYMYWFQQKPGTSPKLWIYSTSNLASGVPVRFSGSGSGTSYSLTISRMEAEDAATYYCQQRRNYPYTFGGGTKLEIKR
For B1, the binding result was “binds”.
